Laboratory results published in PMC6010126, “Biochemical characterization of the native α-carbonic anhydrase purified from the mantle of the Mediterranean mussel, Mytilus galloprovincialis” (Journal of Enzyme Inhibition and Medicinal Chemistry, 2017).
pKi: −log10 of the molar value.

Amino acid sequences for entries named in this document (tags omitted). Residues count along the entry.
UniProt A0A0N9FGL8, 2-256: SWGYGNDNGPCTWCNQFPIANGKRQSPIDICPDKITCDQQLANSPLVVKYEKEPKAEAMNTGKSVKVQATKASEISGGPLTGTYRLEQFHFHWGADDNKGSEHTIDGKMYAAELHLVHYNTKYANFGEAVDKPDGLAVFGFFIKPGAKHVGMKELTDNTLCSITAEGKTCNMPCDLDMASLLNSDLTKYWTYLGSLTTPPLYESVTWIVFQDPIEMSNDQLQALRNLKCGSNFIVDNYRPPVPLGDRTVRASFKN

Molecular target: T1, Mytilus galloprovincialis α-CA (native mussel CA) (Mytilus galloprovincialis, UniProt A0A0N9FGL8)
T1 construct: gene CAII
Details: read-out: KI (acetazolamide); CO2 1.7-17 mM, 20 mM Tris pH 8.3, 20 mM NaClO4, phenol red; 15 min preincubation at room temperature; errors ±5%, three assays

pKi: 6.42
Compound: CC(=O)Nc1nnc(S(N)(=O)=O)s1 [acetazolamide]
